We go through 79 molecules from paper PMC12040169 (PLOS Biology, 2025).

The other results are listed elsewhere or left out.

The subject of the test is T1, CTL2-GFP (C. trachomatis L2/434/Bu, GFP-expressing).
T1 construct: L2/434/Bu, GFP-expressing
Further details: species or system HeLa; Intracellular C. trachomatis growth in HeLa cells, bulk GFP fluorescence relative to DMSO. The conditions noted are these: bulk GFP, single well; 28.5 h, 10 µM; inhibitor.
Turning to `COc1ccccc1Nc1nc(N)nc(CSc2nccn2C)n1` [CBK266710], the “% of control remaining” value was 142.958%.
Take `CCOc1ccc2nc(NS(=O)(=O)c3cc(C(=O)O)c(Cl)cc3Cl)sc2c1` [CBK299789]: the “% of control remaining” value turned out to be 131.616%.
Take `CCOC(=O)c1c(NC(=O)Cn2nc(C(F)(F)F)c(Cl)c2C)sc2c1CCCC2` [CBK263019]: the “% of control remaining” value was 122.506%.
The value for `Cc1cc(C(=O)N(C)C2CCCCC2)no1` [CBK057375] was 109.638%.
As for `CCC(CC)C(=O)Nc1ccc([C@@H](O)[C@H]2COCC(=O)N2CC)cc1` [CBK289684], the “% of control remaining” value turned out to be 127.351%.
Regarding `O=C(Cc1ccc(F)cc1F)Nc1ccc2cc[nH]c2c1` [CBK160044], the “% of control remaining” value is on record as 215.631%.
Take `COc1ccc(CCOc2nccnc2-c2ccsc2)cc1` [CBK106775]: the “% of control remaining” value is reported as 84.0578%.
Take `CC(=O)N1C[C@H](O)C[C@H]1C(=O)N1CC[C@H]2NC(=O)[C@H](Cc3ccccc3)NC(=O)C3(C/C=C/C[C@H]2C1)CCOCC3` [CBK292204]: the “% of control remaining” value was determined as 134.823%.
`CC(C)(C)c1ccc(S(=O)(=O)N/N=C\c2ccc(Cl)cc2Cl)cc1` [CBK264759]: the “% of control remaining” value is reported as 100%.
For `Nc1nc(N)nc(CSc2ncc(-c3ccccc3)n2-c2ccccc2)n1` [CBK297103], the “% of control remaining” value was found to be 155.075%.
Take `Cc1c(OCc2cnn(-c3ccccc3)c2)ccc(-c2n[nH]c(C(F)(F)F)c2-c2ccccc2)c1O` [CBK264962]: the “% of control remaining” value stood at 38.9525%.
The value for `NC(=O)CC[C@H](N)C(=O)N1CC[C@@H]2NC(=O)[C@H](Cc3ccccc3)NC(=O)C3(C/C=C/C[C@@H]2C1)CCOCC3` [CBK292199] was 160.319%.
As to `O=C(c1ccc(F)cc1)C1CCN(Cc2ccc(Cl)c(Cl)c2)CC1` [CBK149114], the “% of control remaining” value is 134.583%.
As to `CN(CCCNC(=O)c1ncoc1-c1cccs1)c1ccccc1` [CBK282248], the “% of control remaining” value was found to be 103.713%.
On to `COc1cc2c(cc1OC)C1c3ccccc3NC(c3ccc(F)cc3)N1CC2` (stereo not shown) [CBK286191], for which the “% of control remaining” value turned out to be 105.202%.
The same measure for `O=C(NCc1cccnc1)N1CCCC(CO)C1` (stereo not shown) [CBK156037]: 127.535%.
For the molecule `Cc1cc(-c2cnc(N)nc2)cc(C2CCCN(S(=O)(=O)c3ccc(F)c(C)c3)C2)n1` (stereo not shown) [CBK285934], the “% of control remaining” value was found to be 115.701%.
The same measure for `COc1ccc(CN(C)c2c(C)nc3c(OCC(=O)N4CCOCC4)cccn23)cc1` [CBK147469]: 113.174%.
For `O=C(CCn1cnnn1)Nc1cc(C(F)(F)F)ccc1Cl` [CBK270127], the “% of control remaining” value was 142.556%.
With `CCOc1ccc(CNc2ccc(CNc3ncn[nH]3)cc2)cc1` [CBK267617], the “% of control remaining” value was 114.823%.
For the molecule `Cc1cc(=O)[nH]c(-n2nc(C)cc2NC(=O)c2ccccc2C)n1` [CBK287654], the “% of control remaining” value came out at 163.889%.
Consider `CCCC(=O)Nc1ccc(OCc2cnccn2)c(C(C)=O)c1` [CBK304766], for which the “% of control remaining” value is recorded as 131.937%.
Regarding `C(=N\Nc1nc2ccccc2[nH]1)/c1cccs1` [CBK025417], the “% of control remaining” value is recorded as 72.8801%.
Consider `CC12CN3CCN(CC(C3)C1(O)CN1CCOCC1)C2` (stereo not shown) [CBK263033], for which the “% of control remaining” value is 112.435%.
The same measure for `CCOC(=O)COc1ccc2c(=O)c(Oc3ccc([N+](=O)[O-])cc3)c(C)oc2c1C` [CBK266092]: 130.886%; for `CCOC(=O)c1cnc2ccc(OC)cc2c1Nc1ccc(OC)cc1` [CBK095337]: 108.261%.
As to `CCc1[nH]ncc1C(=O)N1CCN(c2nccc(OC)n2)CC1` [CBK304915], the “% of control remaining” value is given as 105.869%.
The value for `O=C(CCn1cnc2ccccc2c1=O)Nc1ccccc1C(F)(F)F` [CBK270056] was 105.701%; that for `CC(=O)N1CCC(O)(Cn2c(C3CC3)cc3cccnc32)CC1` [CBK283082] was 106.61%; that for `CC(=O)N1CCc2c([nH]c3cc(F)ccc23)C12CCN(CCC#N)CC2` [CBK039692] was 96.7797%.
Regarding `COc1cc2c(cc1C(C)c1ccc3c(c1)OCO3)OCO2` (stereo not shown) [CBK200107], the “% of control remaining” value is given as 68.1722%.
Take `Cc1nnc(SCC(=O)NCc2c(C)c(Cl)cc(C(C)C)c2O)s1` [CBK269662]: the “% of control remaining” value is listed as 135.554%.
The value for `COC(=O)COc1nccnc1-c1ccc(C)c(C)c1` [CBK106871] was 135.319%; that for `O=C(c1ccccc1Nc1cccc(C(F)(F)F)c1)N1CCN(c2ccccn2)CC1` [CBK012634] was 89.7668%; that for `Cc1cnc(C(=O)OCc2cc(=O)n3ccsc3n2)cn1` [CBK296978] was 150.681%.
For `O=C1NC2(CCN(C(=O)C(F)(F)F)CC2)Oc2ccccc21` [CBK283906], the “% of control remaining” value was 119.19%.
Regarding `O=C(O)CN(c1cccc([N+](=O)[O-])c1)S(=O)(=O)c1ccccc1` [CBK262684], the “% of control remaining” value amounted to 129.07%.
`CC(=O)CCC(=O)N1CCN(C(=O)c2ccc(-c3ccc(S(C)(=O)=O)cc3)cn2)CC1` [CBK160484]: the “% of control remaining” value is recorded as 115.748%.
Regarding `CN1CCCc2ccc(S(=O)(=O)Nc3ccc4nncn4c3)cc21` [CBK306435], the “% of control remaining” value is listed as 116.561%.
The value for `Cn1nccc1C(=O)C1CCN(C(=O)c2cc3c(s2)CCC3)CC1` [CBK284427] was 141.711%.
Regarding `OCCOc1ccccc1-c1cc[nH]n1` [CBK001973], the “% of control remaining” value is recorded as 71.6916%.
Take `Cc1ccc(NC(=O)c2ccc(-c3ccccc3)cc2)c(OC(=O)c2ccc(-c3ccccc3)cc2)c1` [CBK261347]: the “% of control remaining” value was determined as 127.91%.
The value for `O/N=C/c1c[nH]c2ccccc12` [CBK168630] was 94.2476%; that for `CN1CCC(C(=O)NC2Cc3ccccc3C2)CC1` [CBK200263] was 146.197%.
As for `O=C1CCC(=O)N1CCN1CC(O)CC1c1cc(F)ccc1F` (stereo not shown) [CBK306390], the “% of control remaining” value is 149.852%.
`CCOC(=O)CC(=O)N1CCC(c2onc3c2CC(C)CC3)CC1` (stereo not shown) [CBK285187]: the “% of control remaining” value is listed as 115.768%.
With `COc1ccc(Nc2cc(-c3cc4ccccc4o3)ncn2)c(C)c1` [CBK091040], the “% of control remaining” value came to 151.589%.
The same measure for `O=C(CC1CCCC1)NCCn1nc(-c2ccco2)ccc1=O` [CBK283864]: 105.805%; for `Cc1ccc(C2=CCN(CC(=O)Nc3nccs3)CC2)o1` [CBK283557]: 117.146%; for `CC1=NN(c2ccccc2F)C(=O)C1` [CBK067773]: 81.5239%.
In the case of `O=C(CSc1nnc(-c2ccncc2)n1-c1ccccc1)N/N=C/c1ccccc1O` [CBK262788], the “% of control remaining” value stood at 100%.
Turning to `N#Cc1c(N)ncnc1-c1ccccc1` [CBK102172], the “% of control remaining” value was 141.857%.
For `O=C(Nc1nccs1)c1ncoc1-c1cccs1` [CBK283975], the “% of control remaining” value was found to be 113.49%.
Consider `COc1cc(S(=O)(=O)NCCc2ccccc2)c(OC)cc1C` [CBK269868], for which the “% of control remaining” value was 100.934%.
For `O=C(NCC1CCCO1)c1ccc2c(c1)C(=O)N(c1ccccc1-c1ccccc1)C2=O` (stereo not shown) [CBK262777], the “% of control remaining” value is 130.274%.
The same measure for `COc1cc(/C=N/Nc2ccc(C(=O)O)cc2)cc(Br)c1O` [CBK263318]: 99.0539%.
Regarding `COc1ccc(-c2ccc(CCC(=O)O)n2-c2ccc(N(C)C)cc2)cc1` [CBK131895], the “% of control remaining” value came to 81.8039%.
The value for `CC(O)CNc1nccnc1-c1cccc(O)c1` (stereo not shown) [CBK037055] was 201.078%; that for `Cc1cc(C)c(NC(=O)CSc2nnc(Cc3ccccc3)n2C)c(C)c1` [CBK265990] was 108.546%; that for `CCN1CCN(c2ccc(Nc3ccnc4cc5ccccc5cc34)cc2)CC1` [CBK261130] was 103.368%.
The value for `Cc1onc(-c2ccccc2)c1CNC(=O)c1cncnc1` [CBK144098] was 133.549%; that for `O=C(CCn1cnnn1)N1C[C@H]2CC[C@@H]1CN(Cc1cccnc1)C2` [CBK307029] was 177.267%.
The value for `CC1(CNC(=O)c2cc(-c3ccc(F)cc3)no2)COC1` [CBK281757] was 148.34%.
With `Cc1cc(C)n2nc(CC(=O)NCCCn3cc(Cl)cn3)nc2n1` [CBK307276], the “% of control remaining” value is recorded as 151.45%.
The same measure for `Cc1nc(CCNC(=O)N(Cc2cnn(C)c2)C2CC2)nc2c1CCC2` [CBK307650]: 153.626%.
The value for `Cc1ccccc1-c1cncc(C2CCN(C(=O)Cc3c[nH]c4ccccc34)CC2)n1` [CBK286148] was 125.003%.
The same measure for `COC(=O)c1c(C)n[nH]c1COc1ccccc1` [CBK057823]: 130.127%; for `Cn1nc(C(=O)Nc2ccccc2Oc2ccc(F)cc2)ccc1=O` [CBK281430]: 135.713%.
For `Cc1noc(C)c1C(=O)Nc1ccc(N2CCOCC2)c2nonc12` [CBK268125], the “% of control remaining” value is 113.062%.
The same measure for `COc1ccc(C)cc1NC(=O)CCN1CCN(CCO)CC1` [CBK264199]: 119.057%; for `O=C(NCCCc1ccc(Cl)cc1)c1cc2c([nH]c1=O)CCC2` [CBK281560]: 133.43%; for `COc1ccccc1Cc1cccc(C2CCN(C(=O)c3ccc(F)cc3)CC2)n1` [CBK286237]: 84.5681%.
As to `Cn1c(=O)c2c(ncn2CC(=O)NCCOc2ccccc2)n(C)c1=O` [CBK304654], the “% of control remaining” value is given as 110.045%.
Regarding `COc1cccc(CNc2cccc(C(=O)O)c2)c1OCc1ccc(Cl)cc1Cl` [CBK074424], the “% of control remaining” value was found to be 109.709%.
Consider `O=C(CN1CCOCC1)Nc1ccc(NC(=O)CN2CCOCC2)c(Cl)c1` [CBK264243], for which the “% of control remaining” value came out at 107.779%.
On to `CN(C)C(=O)C1(Cc2ccccc2-c2ccccc2)CCN(C(=O)c2cccc(F)c2)CC1` [CBK285675], for which the “% of control remaining” value is 108.762%.
Consider `O=C1c2ccc(S(=O)(=O)c3ccc4c(c3)C(=O)N(CCO)C4=O)cc2C(=O)N1CCO` [CBK023065], for which the “% of control remaining” value is reported as 97.5824%.
On to `NC(=O)C1CN(C(=O)CN2CCCc3ccccc32)c2ccccc2O1` (stereo not shown) [CBK295163], for which the “% of control remaining” value is listed as 172.474%.
As to `NC(=O)c1nc(-c2ccco2)nc2c1[nH]c(=O)n2-c1ccc(Cl)cc1` [CBK287545], the “% of control remaining” value is given as 147.219%.
